Assay [1] addresses T1, recombinant human CD70 (Flag-TNC-CD70) (human, UniProt P32970 39-193).
T1 construct: extracellular domain; also called recombinant CD70; human Flag-TNC-CD70; not shown: Flag tag and TNC trimerisation domain
T1 sequence (looked up): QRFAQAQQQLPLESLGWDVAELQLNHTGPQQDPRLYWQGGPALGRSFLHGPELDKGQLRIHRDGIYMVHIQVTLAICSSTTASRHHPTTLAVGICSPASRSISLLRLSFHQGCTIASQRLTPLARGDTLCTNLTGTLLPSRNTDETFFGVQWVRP
In words: Biacore off-rate.

Assay [2] addresses T2, rhesus recombinant CD70 (FLAG-TNC-rhesus CD70) (rhesus macaque (Macaca mulatta)) (UniProt F7GPA5).
T2 sequence: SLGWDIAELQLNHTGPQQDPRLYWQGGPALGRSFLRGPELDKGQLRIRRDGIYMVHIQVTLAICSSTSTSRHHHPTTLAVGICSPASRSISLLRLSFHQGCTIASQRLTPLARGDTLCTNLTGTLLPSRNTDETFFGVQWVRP
In words: Biacore off-rate. For orientation: SPR reads the build-up and loss of mass on a sensor chip optically.

Assay [3] has as its target cynomolgus monkey CD70 on HSC-F cells (cynomolgus monkey). Nature of the assay: FACS on HSC-F cells.
Assay [4] addresses T3, rhesus CD70 on LCL8664 cells (rhesus monkey) (UniProt F7GPA5).
T3 sequence: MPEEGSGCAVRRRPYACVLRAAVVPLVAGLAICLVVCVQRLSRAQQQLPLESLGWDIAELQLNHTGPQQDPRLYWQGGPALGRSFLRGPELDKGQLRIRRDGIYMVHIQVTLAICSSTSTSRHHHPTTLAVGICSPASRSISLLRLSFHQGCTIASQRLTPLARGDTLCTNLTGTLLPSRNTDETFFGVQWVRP
Nature of the assay: FACS on LCL8664 cells.

The target of assay [5] is T2, rhesus recombinant CD70 (FLAG-TNC-rhesus CD70) (rhesus macaque (Macaca mulatta)). Nature of the assay: CD27-CD70 inhibition ELISA. (In an ELISA, binding on a coated surface is turned into a signal by an enzyme label.)
For assay [6], the target named is T4, recombinant human CD70 (Flag-TNC-CD70) (human) (UniProt P32970).
T4 sequence (looked up): T1 sequence (looked up)
In words: ELISA on anti-Flag-captured Flag-TNC-CD70.

The target in assay [7] is T4, recombinant human CD70 (Flag-TNC-CD70) (human). In words: Biacore off-rate.

Positions count from the first letter of the chain named. No constants are given. Whether binding was seen depends on the method and setting. Some entries that bind do so weakly or less than the wild type. For part of these data: Tags and fused reporters may be left off the sequences shown.

Our source for the binding values is patent US20230265201A1 (published 2023).

B1: 8B12 Fab (Fab, V domains shown)
VH: EVQLVESGGGLVQPGGSLRLSCAASGFTFSVYYMNWVRQAPGKGLEWVSDINNEGDTTYYADSVKGRFTISRDNAKNTLTLQMDSLKPEDTALYYCVRDAGYSNHVPIFDSWGQGTQVIVAS
VL: QTVVTQEPSLSVSPGGTVTLTCGLSSGSVTSSNYPGWYQQTPGQAPRVLIYNTNNRHSGVPSRYSGSISGNKAALTITGAEPEDEADYYCNLHLGSYTPMFGGGTKLTVLG
Consider B1, for which the binding result in assay [1] was “binds”.

B2: 45D9 Fab (Fab, V domains shown)
VH: B1 VH with V31A, V48I, D56Y, T57E, L93R, P107Q
VL: QAVLTQPSSVSVSLGQTAKITCQGGNLWLYGANWYQQNPGRAPILLIYGDNQRPLGIPERFTISKSGGTATLTIDGAQAEDESDYYCQSADYSGNSVFGGGTKLTVLG
Turning to B2, the binding result in assay [1] is reported as “binds”.

B3: 45F8 Fab (Fab, V domains shown)
VH: B1 VH with V31A, V48I, D56Y, T57E, L93R, P107Q
VL: B2 VL with K19N, W28G, I47F, Q52Y, R53M, D81N, A90S, S93P
For the molecule B3, the binding entry in assay [1] is recorded as “binds”.

B4: 9G2 Fab (Fab, V domains shown)
VH: QVQLVESGGGLMQPGGSLRLSCAASGFTFSSSAMSWVRQAPGKGLEWVSSIYSDSSYTYYADSVKSRFTISTDNAKNTLYLQMNSLKPDDTAVYYCAGSSDYEGSFASWGQGTQVTVSS
VL: QSVVTQPPSLSASPGSSVRLTCTLSSGNSVGNYDISWYQQKAGSPPRYLLYYYSDSVKHQGSGVPSRFSGSSDASANAGLLLISGLQPEDEADYYCSAYKSGSHVFGGGTKLTVLG
notes: Llama-derived Fab from phage display; MYC tag at C-terminus of Fd
On to B4, for which, in assay [2], the binding result is reported as “binds”.

B5: 9B2 Fab (Fab, V domains shown)
VH: B4 VH with V2L, L4V, S31G, D54H, S56M, G98A, S105L, A107V
VL: B4 VL with S2A, V4L, S25N, G27A, N32S, V57L, K58S, S72T, K100N, S101R
notes: as for B4
Consider B5, for which the binding entry in assay [2] is recorded as “binds”.

B6: 4D2 Fab (Fab, V domains shown)
VH: QVQLQESGPGLVKPSQTLSLACTVSGGSITTSYYYWSWIRQPPGKGLEWMGAIGSRGSTYYSPSLKTRTSISRDTSKNQFTLQLSSVTPEDTAVYYCARVTGEITYNSGSYYYTLNLFDYWGQGTQVTVSS
VL: QSVLTQPPSLSASPGSSVRLTCTLSSGNSVGNYDISWYQQKAGSPPRYLLYYYSDSYKNQGSGVPSRFSGSKDPSANAGLLLISGLQAEDEADYYCSVSNSGTYKPVFGGGSKLTVLG
notes: as for B4
Consider B6, for which the binding result in assay [2] is given as “binds”.

B7: ARGX-110 (non-fucosylated human IgG1 of germlined 27B3 clone 41D12) (antibody, V domains shown)
VH: EVQLVESGGGLVQPGGSLRLSCAASGFTFSVYYMNWVRQAPGKGLEWVSDINNEGGTTYYADSVKGRFTISRDNSKNSLYLQMNSLRAEDTAVYYCARDAGYSNHVPIFDSWGQGTLVTVSS
VL: QAVVTQEPSLTVSPGGTVTLTCGLKSGSVTSDNFPTWYQQTPGQAPRLLIYNTNTRHSGVPDRFSGSILGNKAALTITGAQADDEAEYFCALFISNPSVEFGGGTQLTVLG
notes: also called ARGX-100; 41D12 (ARGX-110)
In the case of B7, the binding entry in assay [3], in assay [4], in assay [5] and in assay [6] was “binds” each time.

B8: 27B3 Fab (Fab, V domains shown)
VH: B1 VH with D56G, D84N
VL: B7 VL with D32T, D62S, L69S, G70E, A82P, D83E, G111S
Take B8: the binding result in assay [1] is on record as “binds”.

B9: 9D1 Fab (Fab, V domains shown)
VH: B1 VH with D56G, D84N
VL: QAVVTQEPSLSVSPGGTVTLTCGLSSGSVTSSHYPGWYQQTPGQAPRLLIFNTNSRHSGVPSRFSGSISGNKAALTITGAQPEDEADYYCALLNIDDGSTMFGGGTHLTVLG
notes: as for B4
On to B9, for which the binding entry in assay [2] is recorded as “binds”.

B10: 59D10 Fab (Fab, V domains shown)
VH: EVQLVESGGGLVQPGGSLRLSCAASELSFSISEMTWVRQAPGKGLEWVSGISGVTGGSSTSYADSVKGRFTISRDNDKNTLYLQMNSLIPEDTAVYYCATTSGTYYFIPEYEYWGQGTQVTVSS
VL: QSVLTQPPSVSGSPGKTVTISCAGTSSDVGYGYYVSWYQQFPGMAPKLLIYDVNKRASGIADRFSGSKAGNTASLTISGLQSEDEADYYCASYRSSANAVFGGGTHLTVLG
notes: as for B4
Take B10: the binding entry in assay [7] is “binds”.

B11: 57B6 Fab (Fab, V domains shown)
VH: QLQLVESGGGLVQPGGSLRLSCAASGFSFSHYAMSWVRQAPGKGLEWVSGDNTYDGGTRYQDSVKGRFTISRDNGKNTLYLQMNSLKPEDTAVYYCAKDTGRGIMGEYGMDYWGKGTLVTVSS
VL: QTVVTQEPSLSVSPGGTVTLTCGLKSGSVTSSNYPAWYQQTPGQAPRLLIYNTNSRHSGVPSRFSGSISGNKAALTITGAQPEDEADYYCALYMGSGSANAMFGGGTHLTVLG
notes: as for B4
For B11, the binding entry in assay [1] and in assay [2] was “binds” each time.

B12: 5F4 Fab (Fab, V domains shown)
VH: EVQVQESGGGLVHPGGSLKLSCAASGFTFDTYAMSWVRQAPGKGLEWVSAISWSGGETFYAESMKGRFTISRNNAKNTLYLQMNSLKSEDTAVYYCARGMGLAEGLTDWGQGTQVTVSS
VL: QAVVTHPPSLSASPGSSVRLTCTLISGDNIGGYDISWYQQKTGSPPRYLLYYYSDSYKHQSSGVPSRFSGSKDASANAGLLLISGLQSEDEADYYCSAYKSGSYKAPVFGGGTHLTVLG
notes: as for B4
In the case of B12, in assay [2], the binding entry is on record as “binds”.

B13: 9E1 Fab (Fab, V domains shown)
VH: EVQLQESGGGVVQPGGSLRLSCAASGFTFDDYAMSWVRQAPGKGLEWVSSIYMYDSSTYYADSVKGRFTISTDNAKNTVYLQMNSLKSEDTAVYYCAKDINRSYGSSWSHFGPIFSSWGQGTQVTVSS
VL: QAVVTQEPSLSVSPGGTVTLTCGLTSGSVTSSNYPDWYQQTPGQAPRLLIYNTNSRHSGVPSRFSGSISGNKAALTITGAQPEDEADYYCNLYMGSGGSKVFGGGTKLTVLG
notes: as for B4
As for B13, in assay [2], the binding result is recorded as “binds”.

B14: 1C2 Fab (Fab, V domains shown)
VH: ELQVVESGGGLVQPGGSLRLSCAASGFTLSNYWMHWVRQAPRKGLEWVSTISTDNSRTYYADSVKGRFTISRDHAKNTLILQMNSLKSEDTAVYYCIRGSDYEHWGQGTQVTVSS
VL: QTVVTQEPSLSVSPGGTVTLTCGLSSGSVTTTNYPGWFQQTPGQAPRTLIYSTSSRHSGVPSRFSGSISGNKAALTITGAQPEDEADYYCALEEIGSYTYMFGGGTHLTVLG
notes: as for B4
As to B14, the binding entry in assay [2] was “binds”.
